# Measurements published in the supplement of paper PMC10849652.
# Protein sequences, listed by entry. Tags and fused reporters are not part of them. Lines headed by an entry give the natural chain unless they say otherwise; changes in a name come on top.
# UniProt Q8N2A8: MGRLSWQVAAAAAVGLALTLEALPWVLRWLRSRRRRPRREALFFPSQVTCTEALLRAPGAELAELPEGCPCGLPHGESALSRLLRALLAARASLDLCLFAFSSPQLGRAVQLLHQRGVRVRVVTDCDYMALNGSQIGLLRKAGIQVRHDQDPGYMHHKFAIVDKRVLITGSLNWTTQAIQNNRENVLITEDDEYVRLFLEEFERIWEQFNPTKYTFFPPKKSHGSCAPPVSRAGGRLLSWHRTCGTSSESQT
# UniProt Q9HB20: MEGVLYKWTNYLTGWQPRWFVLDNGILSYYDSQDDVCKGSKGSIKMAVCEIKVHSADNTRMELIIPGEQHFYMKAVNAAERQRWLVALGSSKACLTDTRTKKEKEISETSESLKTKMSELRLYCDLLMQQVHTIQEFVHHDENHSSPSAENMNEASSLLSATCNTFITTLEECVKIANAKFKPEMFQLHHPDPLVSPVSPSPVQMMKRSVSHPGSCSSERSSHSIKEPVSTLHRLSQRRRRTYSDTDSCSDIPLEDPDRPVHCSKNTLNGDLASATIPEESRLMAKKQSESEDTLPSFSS
# UniProt Q99453, whole entry, looked up: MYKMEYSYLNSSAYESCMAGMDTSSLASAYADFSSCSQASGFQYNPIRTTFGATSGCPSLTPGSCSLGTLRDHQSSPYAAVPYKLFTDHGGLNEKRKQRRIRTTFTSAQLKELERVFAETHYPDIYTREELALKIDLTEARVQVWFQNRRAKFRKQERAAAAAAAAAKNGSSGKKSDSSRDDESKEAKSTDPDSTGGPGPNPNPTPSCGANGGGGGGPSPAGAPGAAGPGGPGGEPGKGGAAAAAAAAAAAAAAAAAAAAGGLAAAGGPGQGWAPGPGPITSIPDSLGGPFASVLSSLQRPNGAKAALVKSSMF
# UniProt Q9BRB3: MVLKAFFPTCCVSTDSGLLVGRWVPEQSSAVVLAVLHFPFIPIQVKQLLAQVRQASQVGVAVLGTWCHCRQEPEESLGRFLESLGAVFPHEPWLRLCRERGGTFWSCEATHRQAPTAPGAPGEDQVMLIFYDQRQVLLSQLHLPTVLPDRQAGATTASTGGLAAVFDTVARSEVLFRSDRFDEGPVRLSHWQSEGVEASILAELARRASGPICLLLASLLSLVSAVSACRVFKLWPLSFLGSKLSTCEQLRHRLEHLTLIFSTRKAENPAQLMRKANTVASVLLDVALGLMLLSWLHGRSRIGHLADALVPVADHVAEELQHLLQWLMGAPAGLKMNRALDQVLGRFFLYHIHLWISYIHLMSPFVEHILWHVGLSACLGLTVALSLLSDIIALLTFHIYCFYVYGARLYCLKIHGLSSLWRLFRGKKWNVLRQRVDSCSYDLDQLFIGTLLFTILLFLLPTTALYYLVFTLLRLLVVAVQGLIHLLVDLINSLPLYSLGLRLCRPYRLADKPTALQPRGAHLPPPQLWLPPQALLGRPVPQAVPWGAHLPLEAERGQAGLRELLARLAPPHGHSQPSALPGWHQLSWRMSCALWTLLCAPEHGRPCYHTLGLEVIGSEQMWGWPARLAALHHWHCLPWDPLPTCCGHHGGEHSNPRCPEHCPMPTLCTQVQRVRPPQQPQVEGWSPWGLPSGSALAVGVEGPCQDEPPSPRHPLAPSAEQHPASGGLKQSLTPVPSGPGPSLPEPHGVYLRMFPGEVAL
# UniProt Q96JA3: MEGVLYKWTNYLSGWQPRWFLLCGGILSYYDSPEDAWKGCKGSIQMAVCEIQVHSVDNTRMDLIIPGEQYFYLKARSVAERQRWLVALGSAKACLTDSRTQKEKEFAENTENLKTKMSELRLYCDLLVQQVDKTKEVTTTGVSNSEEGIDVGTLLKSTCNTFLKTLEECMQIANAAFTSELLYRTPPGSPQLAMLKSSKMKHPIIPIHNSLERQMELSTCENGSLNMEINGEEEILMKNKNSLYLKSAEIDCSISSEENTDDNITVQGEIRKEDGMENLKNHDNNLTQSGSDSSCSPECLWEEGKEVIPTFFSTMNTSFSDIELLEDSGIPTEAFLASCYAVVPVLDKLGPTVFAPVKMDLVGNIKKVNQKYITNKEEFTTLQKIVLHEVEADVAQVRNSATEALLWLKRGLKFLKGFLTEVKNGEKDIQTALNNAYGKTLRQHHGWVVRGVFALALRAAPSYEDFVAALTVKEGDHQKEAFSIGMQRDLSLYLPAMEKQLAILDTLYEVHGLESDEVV
# UniProt Q8IXK0: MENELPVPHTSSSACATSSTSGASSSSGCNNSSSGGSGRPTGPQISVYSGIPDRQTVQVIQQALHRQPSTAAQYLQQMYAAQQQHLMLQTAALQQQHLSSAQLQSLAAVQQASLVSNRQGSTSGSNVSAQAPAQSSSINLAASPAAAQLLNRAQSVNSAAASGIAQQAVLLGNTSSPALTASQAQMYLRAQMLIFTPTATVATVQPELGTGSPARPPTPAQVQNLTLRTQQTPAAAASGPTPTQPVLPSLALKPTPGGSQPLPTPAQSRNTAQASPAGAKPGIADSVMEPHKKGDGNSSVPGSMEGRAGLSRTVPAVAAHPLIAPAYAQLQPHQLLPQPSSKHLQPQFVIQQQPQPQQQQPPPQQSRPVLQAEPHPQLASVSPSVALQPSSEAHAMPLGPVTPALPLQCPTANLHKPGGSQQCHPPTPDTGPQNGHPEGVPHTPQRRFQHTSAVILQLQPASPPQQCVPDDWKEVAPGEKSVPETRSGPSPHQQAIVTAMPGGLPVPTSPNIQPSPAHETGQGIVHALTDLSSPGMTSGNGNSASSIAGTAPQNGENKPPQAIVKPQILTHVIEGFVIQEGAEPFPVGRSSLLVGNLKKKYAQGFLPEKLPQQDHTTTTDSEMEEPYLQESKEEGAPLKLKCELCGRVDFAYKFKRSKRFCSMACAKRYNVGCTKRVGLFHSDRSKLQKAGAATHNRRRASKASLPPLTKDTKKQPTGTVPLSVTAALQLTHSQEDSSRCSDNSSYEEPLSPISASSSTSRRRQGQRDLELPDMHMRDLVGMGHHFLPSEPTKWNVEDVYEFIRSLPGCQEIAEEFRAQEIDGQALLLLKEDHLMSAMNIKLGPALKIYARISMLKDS
# UniProt P78337, whole entry, looked up: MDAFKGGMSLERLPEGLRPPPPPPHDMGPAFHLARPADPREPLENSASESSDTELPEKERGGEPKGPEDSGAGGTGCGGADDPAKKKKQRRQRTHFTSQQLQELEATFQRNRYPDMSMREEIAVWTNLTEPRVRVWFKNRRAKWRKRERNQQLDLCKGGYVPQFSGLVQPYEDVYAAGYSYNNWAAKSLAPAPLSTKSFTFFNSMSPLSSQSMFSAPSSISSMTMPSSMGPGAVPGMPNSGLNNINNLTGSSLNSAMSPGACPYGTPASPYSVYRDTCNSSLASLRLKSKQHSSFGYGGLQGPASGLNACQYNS
# PIGBOS1, A0A0B4J2F0, UniProt A0A0B4J2F0, whole entry, looked up: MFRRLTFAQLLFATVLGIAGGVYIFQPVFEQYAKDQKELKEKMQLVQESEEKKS
# UniProt Q9P1W9: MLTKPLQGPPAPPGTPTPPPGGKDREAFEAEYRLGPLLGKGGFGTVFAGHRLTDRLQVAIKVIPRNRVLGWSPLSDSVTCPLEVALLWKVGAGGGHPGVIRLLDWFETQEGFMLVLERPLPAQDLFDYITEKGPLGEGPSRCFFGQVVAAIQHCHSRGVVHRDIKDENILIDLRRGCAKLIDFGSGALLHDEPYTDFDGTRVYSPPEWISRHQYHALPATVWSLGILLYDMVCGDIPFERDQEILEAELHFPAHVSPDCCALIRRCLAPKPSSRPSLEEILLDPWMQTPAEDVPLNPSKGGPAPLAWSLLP
# UniProt P07205: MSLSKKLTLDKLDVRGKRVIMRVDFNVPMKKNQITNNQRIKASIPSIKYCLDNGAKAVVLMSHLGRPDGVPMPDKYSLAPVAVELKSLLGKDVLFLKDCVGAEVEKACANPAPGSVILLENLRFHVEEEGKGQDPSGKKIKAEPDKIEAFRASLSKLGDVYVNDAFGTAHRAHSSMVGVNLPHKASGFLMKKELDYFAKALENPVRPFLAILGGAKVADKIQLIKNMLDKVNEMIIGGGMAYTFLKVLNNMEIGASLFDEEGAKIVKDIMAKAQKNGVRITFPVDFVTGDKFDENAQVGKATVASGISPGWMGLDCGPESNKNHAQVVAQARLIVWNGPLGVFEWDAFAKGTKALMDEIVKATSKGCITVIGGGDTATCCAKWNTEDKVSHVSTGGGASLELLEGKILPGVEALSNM
# UniProt Q99569: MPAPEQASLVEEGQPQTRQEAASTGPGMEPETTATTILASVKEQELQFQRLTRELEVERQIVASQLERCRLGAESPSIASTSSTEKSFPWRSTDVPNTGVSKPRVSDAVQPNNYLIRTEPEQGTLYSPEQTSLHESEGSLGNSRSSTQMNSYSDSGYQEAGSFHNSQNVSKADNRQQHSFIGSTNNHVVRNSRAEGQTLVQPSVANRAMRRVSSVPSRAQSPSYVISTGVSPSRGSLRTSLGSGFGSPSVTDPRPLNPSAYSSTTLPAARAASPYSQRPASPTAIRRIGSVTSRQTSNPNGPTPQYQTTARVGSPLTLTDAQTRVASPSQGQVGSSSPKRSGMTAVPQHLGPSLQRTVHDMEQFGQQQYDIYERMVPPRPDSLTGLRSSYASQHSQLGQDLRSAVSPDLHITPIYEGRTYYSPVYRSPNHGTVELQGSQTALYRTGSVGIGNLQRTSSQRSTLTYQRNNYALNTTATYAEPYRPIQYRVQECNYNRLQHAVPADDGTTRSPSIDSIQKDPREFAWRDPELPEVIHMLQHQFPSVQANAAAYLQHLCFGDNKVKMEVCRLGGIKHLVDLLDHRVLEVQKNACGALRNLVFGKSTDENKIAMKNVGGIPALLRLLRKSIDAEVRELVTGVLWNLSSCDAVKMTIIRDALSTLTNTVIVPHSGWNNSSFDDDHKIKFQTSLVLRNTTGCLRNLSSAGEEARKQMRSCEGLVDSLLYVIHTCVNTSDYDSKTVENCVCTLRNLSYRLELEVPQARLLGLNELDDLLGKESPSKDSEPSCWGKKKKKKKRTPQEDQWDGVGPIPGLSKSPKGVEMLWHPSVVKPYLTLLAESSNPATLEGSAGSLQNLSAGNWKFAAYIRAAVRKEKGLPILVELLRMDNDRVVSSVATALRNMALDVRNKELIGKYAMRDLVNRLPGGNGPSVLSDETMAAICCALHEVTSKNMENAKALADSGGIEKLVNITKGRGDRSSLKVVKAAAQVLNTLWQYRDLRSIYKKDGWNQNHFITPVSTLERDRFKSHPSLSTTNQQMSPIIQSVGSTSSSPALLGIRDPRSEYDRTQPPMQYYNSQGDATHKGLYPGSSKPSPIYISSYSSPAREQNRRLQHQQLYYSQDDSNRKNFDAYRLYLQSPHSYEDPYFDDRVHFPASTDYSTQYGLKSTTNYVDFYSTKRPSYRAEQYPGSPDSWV
# UniProt Q86YI8: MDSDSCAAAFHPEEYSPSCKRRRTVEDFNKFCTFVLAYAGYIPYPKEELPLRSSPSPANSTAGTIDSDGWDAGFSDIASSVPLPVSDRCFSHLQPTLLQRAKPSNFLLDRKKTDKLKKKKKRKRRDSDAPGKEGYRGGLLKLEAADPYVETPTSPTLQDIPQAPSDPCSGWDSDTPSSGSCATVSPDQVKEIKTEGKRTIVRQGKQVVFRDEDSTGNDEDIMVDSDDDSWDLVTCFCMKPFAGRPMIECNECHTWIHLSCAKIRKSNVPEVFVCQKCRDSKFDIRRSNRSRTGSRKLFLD
# UniProt Q99640: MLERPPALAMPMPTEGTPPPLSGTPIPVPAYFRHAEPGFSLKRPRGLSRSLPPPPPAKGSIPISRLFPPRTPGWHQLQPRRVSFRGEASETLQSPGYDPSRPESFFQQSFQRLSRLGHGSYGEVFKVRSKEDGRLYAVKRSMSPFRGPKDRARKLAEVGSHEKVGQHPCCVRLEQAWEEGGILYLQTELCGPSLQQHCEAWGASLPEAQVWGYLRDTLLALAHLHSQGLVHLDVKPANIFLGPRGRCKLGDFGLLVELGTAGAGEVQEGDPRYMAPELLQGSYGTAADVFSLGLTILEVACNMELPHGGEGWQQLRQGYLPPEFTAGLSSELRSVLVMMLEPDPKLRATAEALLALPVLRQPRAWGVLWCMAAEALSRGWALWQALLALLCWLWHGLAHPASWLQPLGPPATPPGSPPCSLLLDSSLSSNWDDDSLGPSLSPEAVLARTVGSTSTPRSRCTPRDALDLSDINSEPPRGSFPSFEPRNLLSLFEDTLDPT
# UniProt Q8N4B1: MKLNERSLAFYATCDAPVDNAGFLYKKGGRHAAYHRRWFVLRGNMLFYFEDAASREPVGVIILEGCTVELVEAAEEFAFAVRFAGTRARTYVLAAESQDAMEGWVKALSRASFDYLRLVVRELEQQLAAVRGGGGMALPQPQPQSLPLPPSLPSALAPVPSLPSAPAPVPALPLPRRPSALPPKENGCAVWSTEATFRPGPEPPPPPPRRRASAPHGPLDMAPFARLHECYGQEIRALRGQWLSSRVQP
# UniProt Q8TBF5: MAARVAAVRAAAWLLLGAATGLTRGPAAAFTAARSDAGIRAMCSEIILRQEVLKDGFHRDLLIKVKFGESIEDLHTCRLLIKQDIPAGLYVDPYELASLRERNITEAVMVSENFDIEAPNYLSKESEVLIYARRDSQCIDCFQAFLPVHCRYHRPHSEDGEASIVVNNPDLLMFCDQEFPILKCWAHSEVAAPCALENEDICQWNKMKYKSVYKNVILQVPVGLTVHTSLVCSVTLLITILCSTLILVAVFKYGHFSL
# This is one part of the list.
# Legend:
# Assay in all cases: log2 fold change, soluble protein after heating vs DMSO (PISA); higher = thermal stabilisation; K562 lysate, 10 uM; active = over 0.2 and 3.5 SD of the protein, either way, in both replicates (recomputed)
# [1] = compound: CC1=C(C2=C(C=C1)C(=O)C3=CC=CC=C3N2CCCN)C
# How it was run: (§1)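 The values are log-two fold changes in thermal stability compared with solvent controls and come from duplicates. They were obtained by TMTpro 16plex LC-MS/MS, with channel sums equalised, on the supernatant after 21,000xg for 90 min. That supernatant came from crude K562 extract at 1 mg/mL protein treated with 10 μM compound for 30 min, heated for 3 min across 48°C-58°C, pooled and brought to 0.5% NP-40 at 4°C.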
# [2] = compound: C1=CC2=NC=CN=C2C=C1/C=C/3\C(=O)NC(=O)S3
# How it was run: as §1
# [3] = compound: C1=CC=C(C=C1)C2=NC(=C(N2)C3=CC=NC=C3)C4=CC(=C(C=C4)Cl)O
# How it was run: as §1
# [4] = compound: C1CCN(C1)C(=O)NC2=CC=CC(=C2)NC3=NC=C(C(=N3)NCCC4=CN=CN4)Br
# How it was run: as §1
# [5] = compound: C1CN(CCC1(CC2=CC=C(C=C2)Cl)N)C3=NC=NC4=C3C=CN4
# How it was run: as §1
# [6] = compound: C1COCCN1CCN2C3=CC=CC=C3N=C2NC(=O)C4=CC(=CC=C4)[N+](=O)[O-] [IRAK-1-4 Inhibitor I]
# How it was run: as §1
# [7] = compound: C=CC(=O)N1CCC[C@@H](n2nc(-c3ccc(Oc4ccccc4)cc3)c3c(N)ncnc32)C1 [ibrutinib]
# How it was run: as §1
# [8] = compound: CC(C)(C)Cn1c(N)nc2ccc(-c3[nH]c(C(C)(C)C)nc3-c3ccc(F)cc3)nc21 [ralimetinib]
# How it was run: as §1
# [9] = compound: CC(C)(O)CC(=O)NCCn1ccc2ncnc(Nc3ccc(Oc4cccc(C(F)(F)F)c4)c(Cl)c3)c21
# How it was run: as §1
# [10] = compound: CC1=C(C=C(C=C1)NC(=O)C2=CC(=CC=C2)C(C)(C)C#N)NC3=CC4=C(C=C3)N=CN(C4=O)C
# How it was run: as §1
# [11] = compound: CC1=C(C=C(C=C1)NC(=O)C2=CC(=CC=C2)N(C)C)NC(=O)C3=CC=C(C=C3)O
# How it was run: as §1
# [12] = compound: CC1=C(C(CC(=O)N1)C2=CC=C(C=C2)C(F)(F)F)C(=O)NC3=C(C=C4C(=C3)C=NN4)F
# How it was run: as §1
# [13] = compound: C/C(=N\NC(=O)C1=CC(=CC=C1)S(=O)(=O)N2CCOCC2)/C3=C(C=CC(=C3)Cl)O
# How it was run: as §1
# [14] = compound: C1=CC2=C(C=CC(=C2)/C=C\3/C(=O)NC(=NCC4=CC=CS4)S3)N=C1
# How it was run: as §1
# [15] = compound: C1=CC=C2C(=C1)C3=NNC4=CC=CC(=C43)C2=O
# How it was run: as §1
# [16] = compound: CC(=O)c1cnc2ccc(-c3cc(Cl)c(O)c(Cl)c3)nc2c1N[C@H]1CC[C@H](CN(C)C)CC1
# How it was run: as §1
# [17] = compound: CC1=CC=C(C=C1)SC2=C3C=C(SC3=CN=C2)C(=O)N
# How it was run: as §1
target,measurement,setting,value
PLD6 (UniProt Q8N2A8),log2 fold change,[1],inactive: 0.015
PIK3AP1 (UniProt Q6ZUJ8),log2 fold change,[2],inactive: -0.051
same,log2 fold change,[3],inactive: -0.02
same,log2 fold change,[4],inactive: -0.031
same,log2 fold change,[5],inactive: -0.114
same,log2 fold change,[6],inactive: -0.042
same,log2 fold change,[7],inactive: 0.035
same,log2 fold change,[8],inactive: -0.03
same,log2 fold change,[9],inactive: -0.093
same,log2 fold change,[1],inactive: -0.151
same,log2 fold change,[10],inactive: 0.054
same,log2 fold change,[11],inactive: -0.098
PLEKHA3 (UniProt Q9HB20),log2 fold change,[3],inactive: -0.007
same,log2 fold change,[6],inactive: 0.026
same,log2 fold change,[8],inactive: 0.045
same,log2 fold change,[9],inactive: -0.049
same,log2 fold change,[12],inactive: 0.004
same,log2 fold change,[1],inactive: 0.08
same,log2 fold change,[10],inactive: 0.025
same,log2 fold change,[11],inactive: -0.032
PHOX2B (UniProt Q99453),log2 fold change,[13],inactive: 0.04
same,log2 fold change,[14],inactive: -0.088
same,log2 fold change,[2],inactive: -0.188
same,log2 fold change,[15],inactive: 0.05
same,log2 fold change,[4],inactive: -0.044
same,log2 fold change,[5],inactive: -0.153
same,log2 fold change,[7],inactive: 0.036
same,log2 fold change,[12],inactive: -0.155
same,log2 fold change,[1],inactive: 0.033
same,log2 fold change,[10],inactive: 0.138
PIGQ (UniProt Q9BRB3),log2 fold change,[13],inactive: 0.071
same,log2 fold change,[14],inactive: 0.037
same,log2 fold change,[2],inactive: -0.108
same,log2 fold change,[15],inactive: -0.162
same,log2 fold change,[4],inactive: 0.023
same,log2 fold change,[5],inactive: 0.049
same,log2 fold change,[7],inactive: -0.209
same,log2 fold change,[16],inactive: 0.016
same,log2 fold change,[10],inactive: -0.074
same,log2 fold change,[17],inactive: 0.137
PHF20 (UniProt Q9BVI0),log2 fold change,[3],inactive: -0.035
same,log2 fold change,[6],inactive: 0.01
same,log2 fold change,[8],inactive: -0.092
same,log2 fold change,[9],inactive: -0.036
same,log2 fold change,[10],inactive: -0.086
same,log2 fold change,[11],inactive: -0.046
PLEKHA8 (UniProt Q96JA3),log2 fold change,[3],inactive: 0.083
same,log2 fold change,[4],inactive: -0.342
same,log2 fold change,[5],inactive: 0.154
same,log2 fold change,[6],inactive: -0.235
same,log2 fold change,[8],inactive: 0.272
same,log2 fold change,[9],inactive: 0.177
same,log2 fold change,[12],inactive: 0.02
same,log2 fold change,[1],inactive: -0.082
same,log2 fold change,[11],inactive: -0.234
PHC2 isoform 5 (UniProt Q8IXK0),log2 fold change,[13],inactive: -0.207
same,log2 fold change,[14],inactive: 0.089
same,log2 fold change,[15],inactive: 0.002
same,log2 fold change,[4],inactive: -0.062
same,log2 fold change,[5],inactive: 0.082
same,log2 fold change,[12],inactive: 0.063
same,log2 fold change,[10],inactive: -0.016
PLEC isoform 3 (UniProt Q15149),log2 fold change,[13],inactive: -0.124
same,log2 fold change,[14],inactive: -0.239
same,log2 fold change,[2],inactive: 0.019
same,log2 fold change,[15],inactive: -0.19
same,log2 fold change,[4],inactive: 0.015
same,log2 fold change,[5],inactive: 0.053
same,log2 fold change,[7],inactive: 0.138
same,log2 fold change,[10],inactive: -0.011
PITX1 (UniProt P78337),log2 fold change,[13],inactive: 0.097
same,log2 fold change,[14],inactive: 0.013
same,log2 fold change,[2],inactive: -0.069
same,log2 fold change,[15],inactive: -0.157
same,log2 fold change,[4],inactive: -0.101
same,log2 fold change,[5],inactive: 0.054
same,log2 fold change,[7],inactive: 0.001
same,log2 fold change,[1],inactive: -0.027
same,log2 fold change,[10],inactive: -0.028
"PIGBOS1, A0A0B4J2F0",log2 fold change,[10],inactive: -0.033
"PIGT, A0A1W2PP13",log2 fold change,[16],inactive: -0.028
same,log2 fold change,[12],inactive: -0.003
same,log2 fold change,[17],inactive: -0.056
PIDD1 (UniProt Q9HB75),log2 fold change,[3],inactive: 0.111
same,log2 fold change,[6],inactive: 0.166
same,log2 fold change,[8],inactive: 0.024
same,log2 fold change,[9],inactive: 0.003
same,log2 fold change,[1],inactive: 0.136
same,log2 fold change,[11],inactive: -0.049
PHF12 (UniProt Q96QT6),log2 fold change,[3],inactive: 0.289
same,log2 fold change,[6],inactive: -0.008
same,log2 fold change,[8],inactive: 0
same,log2 fold change,[9],inactive: -0.044
same,log2 fold change,[11],inactive: 0.025
PIM2 (UniProt Q9P1W9),log2 fold change,[3],inactive: -0.219
same,log2 fold change,[6],inactive: -0.019
same,log2 fold change,[8],inactive: 0.05
same,log2 fold change,[9],inactive: 0.075
same,log2 fold change,[12],inactive: -0.127
same,log2 fold change,[1],inactive: 0.184
same,log2 fold change,[11],inactive: 0.11
PHOSPHO2 (UniProt C9JD35),log2 fold change,[4],inactive: 0.069
same,log2 fold change,[5],inactive: -0.21
same,log2 fold change,[10],inactive: 0.09
PGK2 (UniProt P07205),log2 fold change,[13],inactive: 0.059
same,log2 fold change,[14],inactive: 0.127
same,log2 fold change,[3],inactive: -0.022
same,log2 fold change,[15],inactive: -0.003
same,log2 fold change,[4],inactive: -0.207
same,log2 fold change,[5],inactive: -0.034
same,log2 fold change,[6],inactive: -0.085
same,log2 fold change,[16],inactive: -0.068
same,log2 fold change,[8],inactive: 0.048
same,log2 fold change,[9],inactive: 0.036
same,log2 fold change,[11],inactive: -0.055
same,log2 fold change,[17],inactive: 0.017
PKP4 (UniProt Q99569),log2 fold change,[3],inactive: 0.027
same,log2 fold change,[4],inactive: 0.062
same,log2 fold change,[5],inactive: 0.035
same,log2 fold change,[6],inactive: -0.03
same,log2 fold change,[8],inactive: 0.005
same,log2 fold change,[9],inactive: -0.044
same,log2 fold change,[1],inactive: 0.084
same,log2 fold change,[11],inactive: -0.012
PHF13 (UniProt Q86YI8),log2 fold change,[2],inactive: 0.029
same,log2 fold change,[3],inactive: -0.064
same,log2 fold change,[6],inactive: 0.058
same,log2 fold change,[7],inactive: -0.146
same,log2 fold change,[16],inactive: -0.144
same,log2 fold change,[8],inactive: -0.046
same,log2 fold change,[9],inactive: -0.268
same,log2 fold change,[10],inactive: 0.13
same,log2 fold change,[11],inactive: 0.04
same,log2 fold change,[17],inactive: -0.143
PHF2 (UniProt O75151),log2 fold change,[3],inactive: 0.339
same,log2 fold change,[6],inactive: -0.068
same,log2 fold change,[8],inactive: -0.205
same,log2 fold change,[9],inactive: -0.228
same,log2 fold change,[11],inactive: 0.135
PGM3 (UniProt D6RCQ8),log2 fold change,[2],inactive: 0
same,log2 fold change,[7],inactive: 0.382
same,log2 fold change,[16],inactive: 0.036
same,log2 fold change,[17],inactive: 0.17
PIWIL4 (UniProt Q7Z3Z4),log2 fold change,[12],inactive: 0.049
PKMYT1 (UniProt Q99640),log2 fold change,[13],inactive: -0.018
same,log2 fold change,[14],inactive: 0.056
same,log2 fold change,[3],inactive: 0.091
same,log2 fold change,[15],inactive: 0.048
same,log2 fold change,[4],inactive: -0.044
same,log2 fold change,[5],inactive: -0.024
same,log2 fold change,[6],inactive: 0.002
same,log2 fold change,[8],inactive: 0.003
same,log2 fold change,[9],inactive: -0.118
same,log2 fold change,[12],inactive: 0.022
same,log2 fold change,[1],inactive: -0.06
same,log2 fold change,[10],inactive: 0.2
same,log2 fold change,[11],inactive: 0.035
PITPNM1 (UniProt O00562),log2 fold change,[2],inactive: 0.169
same,log2 fold change,[3],inactive: -0.249
same,log2 fold change,[6],inactive: 0.006
same,log2 fold change,[7],inactive: 0.045
same,log2 fold change,[8],inactive: 0.17
same,log2 fold change,[9],inactive: -0.007
same,log2 fold change,[12],inactive: -0.048
same,log2 fold change,[10],inactive: 0.103
same,log2 fold change,[11],inactive: 0.118
PHC1 (UniProt P78364),log2 fold change,[13],inactive: 0.032
same,log2 fold change,[14],inactive: -0.004
same,log2 fold change,[2],inactive: -0.075
same,log2 fold change,[15],inactive: -0.051
same,log2 fold change,[4],inactive: 0.021
same,log2 fold change,[5],inactive: -0.01
same,log2 fold change,[7],inactive: 0.027
same,log2 fold change,[12],inactive: 0.044
same,log2 fold change,[1],inactive: -0.117
same,log2 fold change,[10],active: 0.443
PHETA1 isoform 4 (UniProt Q8N4B1),log2 fold change,[3],inactive: 0.132
same,log2 fold change,[6],inactive: 0.291
same,log2 fold change,[8],inactive: 0.021
same,log2 fold change,[9],inactive: -0.074
same,log2 fold change,[11],inactive: -0.054
PKLR (UniProt F8W6W2),log2 fold change,[13],inactive: 0
same,log2 fold change,[14],inactive: -0.142
same,log2 fold change,[15],inactive: 0.086
PIP5K1B isoform 2 (UniProt O14986),log2 fold change,[2],inactive: 0.14
same,log2 fold change,[7],inactive: -0.116
same,log2 fold change,[10],inactive: -0.328
PIGX isoform 2 (UniProt Q8TBF5),log2 fold change,[2],inactive: 0.023
same,log2 fold change,[3],inactive: -0.004
same,log2 fold change,[4],inactive: -0.164
same,log2 fold change,[5],inactive: 0.02
same,log2 fold change,[6],inactive: 0.068
same,log2 fold change,[7],inactive: -0.007
same,log2 fold change,[16],inactive: 0.133
same,log2 fold change,[8],inactive: 0.082
same,log2 fold change,[9],inactive: -0.259
same,log2 fold change,[12],inactive: -0.112
same,log2 fold change,[1],inactive: 0.036
same,log2 fold change,[10],inactive: 0.107
same,log2 fold change,[11],inactive: 0.167
same,log2 fold change,[17],inactive: 0.044

# Some of the entries so far, tab-delimited:
target	measurement	setting	value
PIM2 (UniProt Q9P1W9)	log2 fold change	[6]	inactive: -0.019
same	log2 fold change	[8]	inactive: 0.05
same	log2 fold change	[9]	inactive: 0.075
same	log2 fold change	[12]	inactive: -0.127
same	log2 fold change	[1]	inactive: 0.184
same	log2 fold change	[11]	inactive: 0.11
PHOSPHO2 (UniProt C9JD35)	log2 fold change	[4]	inactive: 0.069
same	log2 fold change	[5]	inactive: -0.21
same	log2 fold change	[10]	inactive: 0.09
PGK2 (UniProt P07205)	log2 fold change	[13]	inactive: 0.059
same	log2 fold change	[14]	inactive: 0.127
same	log2 fold change	[3]	inactive: -0.022
same	log2 fold change	[15]	inactive: -0.003
same	log2 fold change	[4]	inactive: -0.207
same	log2 fold change	[5]	inactive: -0.034
same	log2 fold change	[6]	inactive: -0.085
same	log2 fold change	[16]	inactive: -0.068
same	log2 fold change	[8]	inactive: 0.048
same	log2 fold change	[9]	inactive: 0.036
same	log2 fold change	[11]	inactive: -0.055
same	log2 fold change	[17]	inactive: 0.017
PKP4 (UniProt Q99569)	log2 fold change	[3]	inactive: 0.027
same	log2 fold change	[4]	inactive: 0.062
same	log2 fold change	[5]	inactive: 0.035
same	log2 fold change	[6]	inactive: -0.03
same	log2 fold change	[8]	inactive: 0.005
same	log2 fold change	[9]	inactive: -0.044
same	log2 fold change	[1]	inactive: 0.084
same	log2 fold change	[11]	inactive: -0.012
PHF13 (UniProt Q86YI8)	log2 fold change	[2]	inactive: 0.029
same	log2 fold change	[3]	inactive: -0.064
same	log2 fold change	[6]	inactive: 0.058
same	log2 fold change	[7]	inactive: -0.146
same	log2 fold change	[16]	inactive: -0.144
same	log2 fold change	[8]	inactive: -0.046
same	log2 fold change	[9]	inactive: -0.268
same	log2 fold change	[10]	inactive: 0.13
same	log2 fold change	[11]	inactive: 0.04
